# According to PubChem BioAssay AID2685 (National Center for Advancing Translational Sciences (NCATS), 2010):
# Some of the results follow. Further columns of the screen follow, without active or inactive calls. The list favours compounds with an active or inconclusive main result. Potencies come from curve fits of mixed quality, noted in brackets.
# Assay: qHTS Assay for Lipid Storage Modulators in Drosophila S3 Cells;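 as to cell number change: cells counted by Cell Tracker Red CMTPX staining in the red channel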
# Details: BODIPY lipid droplet fluorescence, 18-24 h; for cell number change: measured here: cell count max response, cells fed with added oleic acid
# In short: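 Laser-scanning cytometry quantifies lipid droplet accumulation (500–530 nm total intensity; droplet/cell object ratio) in oleic acid-fed (400 uM added) Drosophila S3 cells treated with a concentration series. 20 uM Triacsin C defined 100% inhibition.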
# [1] = measured here: lipid fluorescence (Fed channel) AC50, cells fed with added oleic acid
# [2] = measured here: cell number channel AC50, cells fed with added oleic acid
SMILES,cell number change [%],AC50 [1],AC50 [2]
CC(C)(Oc1ccc(Cl)cc1)C(=O)NC1CCN(Cc2ccccc2)CC1,0.803,–,–
COCCNC(=S)N(C)C1(c2ccccc2Cl)CCCCC1=O (configuration not stated),19.5,"5.17 µM [rising, partial curve]",–
CC(=O)N(Cc1ccccc1)c1ncc2c(n1)c(=O)c(C#N)c1ccccn12,49.5,"0.184 µM [rising, full curve, poor fit]","0.731 µM [rising, partial curve]"
CCN(CC(=O)NCc1ccc(Cl)cc1)C(=O)CCc1ccccc1,20.8,–,–
Cc1ccccc1OC1C(=O)N(CC2CCCO2)C1c1ccc2c(c1)OCO2 (configuration not stated),17.8,–,–
O=C(O)c1ccc(COc2ccccc2C=C2C(=O)c3ccccc3C2=O)cc1,6.51,–,"5.8 µM [rising, single point]"
CSc1nsc(SCC(=O)Nc2ccc(C(=O)O)cc2)n1,19.4,"0.13 µM [falling, full curve, poor fit]",–
C=CCOc1c(Br)cc(/C=C2\SC(=Nc3ccccc3)NC2=O)cc1OC,-56.6,"0.517 µM [falling, single point]","16.4 µM [falling, partial curve, poor fit]"
Cc1cccc2cc(COC(=O)C3CCCO3)c(=O)[nH]c12 (configuration not stated),1.4,"0.731 µM [rising, full curve]",–
CC(C)Oc1c(Cl)cc(CNC(C)(C)CO)cc1Cl,-7.91,"3.26 µM [falling, partial curve, poor fit]",–
O=CNCCc1nc2ccccc2n1CCc1ccccc1,17.6,"0.651 µM [falling, single point]",–
O=C(O)c1ccccc1NC(=O)C1CCN(S(=O)(=O)c2cccc3nsnc23)CC1,2.69,–,–
Cc1cc(C)c2cc3c(N)c(C(=O)N4CCc5ccccc5C4)sc3nc2c1,–,–,"0.259 µM [rising, partial curve, poor fit]"
O=C(CSc1n[nH]c(-c2ccccc2O)n1)NC1CCCCC1,-29.5,"29.1 µM [falling, partial curve, poor fit]",–
COc1cc(Cl)c(CN2CCCC(CO)(Cc3cccc(Cl)c3)C2)cc1OC (configuration not stated),-20.9,"20.6 µM [falling, single point]",–
Cc1ccccc1CN1CCC(n2nccc2NC(=O)CCCc2ccccc2)CC1,20.3,–,–
Cc1cc2c(N=NC(=O)C3CC3c3ccccc3)c(O)[nH]c2cc1Br (configuration not stated),10.8,"3.66 µM [rising, partial curve]",–
Cc1ccccc1NC(=O)CNc1ccccc1C(=O)NCc1ccco1,14.3,–,–
COc1ccc(C(=O)Nc2ccc(C3(C#N)CCCC3)cc2)cc1,–,"5.17 µM [rising, single point]",–
Cc1nc(N)sc1C(=O)Nc1ccccc1,51.6,"0.291 µM [rising, full curve, poor fit]","0.00461 µM [rising, full curve, poor fit]"
CCCC1C(c2ccccc2)C(C#N)(C#N)C2(C#N)CC1(N)NC2=O (configuration not stated),12.3,–,–
CCOC(=O)c1cc(-c2ccc(C)c([N+](=O)[O-])c2)nc2c1c(=O)n(C)c(=O)n2C,14.2,–,–

SMILES,cell number change [%],AC50 [1],AC50 [2]
O=[N+]([O-])c1ccc2ncnc(Nc3ccc4c(c3)OCCO4)c2c1,-6.62,–,–
COc1ccccc1/C=C/C=N/NC(=O)CC1C(=O)NN=C1C (configuration not stated),16.8,"25.9 µM [rising, single point]",–
Cn1c(N)c(C(=O)COC(=O)c2ccc(Cl)nc2)c(=O)n(C)c1=O,6.91,"4.61 µM [falling, single point]",–
CC(C)c1onc(C(=O)N2C(C)CCCC2C)c1[N+](=O)[O-] (configuration not stated),-0.987,–,–
CC(C)C[C@@H]1NC(=O)N(CCN2CCOCC2)C1=O,-7.81,–,–
O=C(Nc1c(F)cc(F)cc1Br)C1CCCO1 (configuration not stated),-35.6,"3.66 µM [falling, full curve]","3.66 µM [falling, full curve]"
COc1ccccc1CCN1CCCC(CN(C)C(=O)c2ccc3nc[nH]c3c2)C1 (configuration not stated),40.4,–,"0.00461 µM [rising, full curve, poor fit]"
COc1ccc2c(c1)C(=O)CCC2c1ccccc1 (configuration not stated),18.9,"6.51 µM [rising, full curve]",–
COc1ccc([N+](=O)[O-])cc1NC(=O)C(C)Sc1ccc(C)cc1 (configuration not stated),-30.2,"0.00517 µM [falling, full curve, poor fit]","0.0326 µM [falling, full curve, poor fit]"
O=c1oc2cc(OCc3nn[nH]n3)ccc2c2c1CCCC2,24.6,–,–
CS(=O)(=O)N(CC(=O)NCc1ccco1)c1cc(C(F)(F)F)ccc1Cl,8.43,"0.00461 µM [rising, full curve, poor fit]",–
COc1ccc(CC(=O)Nc2ccc(S(=O)(=O)NCC3CCCO3)cc2)cc1 (configuration not stated),–,–,"3.66 µM [rising, single point]"
Cc1ccc(C(=O)Nc2cc3c(oc2=O)CCCC3=O)cc1,-5.17,"1.3 µM [rising, full curve, poor fit]",–
CN(C(=O)CSc1nnc(-c2ccco2)n1C)C1CCCCC1,-20.5,–,–
CN(C(=O)CSc1nnc(Cc2cccs2)n1C1CC1)C1CCS(=O)(=O)C1 (configuration not stated),–,–,"1.03 µM [falling, single point]"
O=C(CSc1ccc(Br)cc1)Nc1cccc(S(=O)(=O)N2CCOCC2)c1,–,"29.1 µM [falling, partial curve, poor fit]",–
Cc1ccc(/C([O-])=C(/C(=S)Nc2ccc(SC(F)F)cc2)[n+]2ccccc2)cc1[N+](=O)[O-],2.74,–,–
Cc1ccc(C)c(NC(=O)c2ccc(S(=O)(=O)C(F)F)cc2)c1,-37.8,"29.1 µM [falling, single point]","29.1 µM [falling, single point]"
CSCc1ccc(C(=O)Nc2cc(C)cc(C)c2)cc1,17.1,–,"6.51 µM [rising, single point]"
COc1ccc(C(NC(=O)c2ccc(-c3ccccc3)cc2)c2ccccc2)cc1 (configuration not stated),-21.6,"3.26 µM [falling, full curve]",–
Cc1sc2nc(SCC(=O)c3cccs3)n(Cc3ccco3)c(=O)c2c1C,11.9,"1.64 µM [rising, full curve]",–
COc1cccc(C2SCC(=O)N2c2ccc(Cl)cc2)c1OC (configuration not stated),-8.44,–,–

SMILES,cell number change [%],AC50 [1],AC50 [2]
Cc1ccccc1Oc1ccccc1N,-56.3,"14.6 µM [falling, partial curve, poor fit]","23.1 µM [falling, single point]"
COc1ccc(NC(=O)Cn2ncc(Cl)c(Cl)c2=O)cc1S(=O)(=O)N1CCOCC1,-8.45,"10.3 µM [falling, partial curve]",–
Cc1ccc(S(=O)(=O)NCc2ccc(C(=O)NCCN(Cc3ccccc3)C(C)C)cc2)cc1,-3.03,"0.82 µM [falling, full curve]",–
CCOC(=O)CNC(=O)C1(c2ccccc2)CCCC1,-33.1,"7.31 µM [falling, partial curve]","29.1 µM [falling, single point]"
Cn1cc(C(=O)NC2C3CC4CC(C3)CC2C4)cn1 (configuration not stated),3.11,"10.3 µM [falling, partial curve]",–
CC1=NN(c2nc(-c3ccc(C)cc3)cs2)C(=O)C1N=Nc1cccc(C)c1 (configuration not stated),-23.2,"14.6 µM [falling, partial curve]",–
Fc1ccc(Cn2nnnc2C(c2ccc(Cl)cc2)N2CCSCC2)cc1 (configuration not stated),87,–,"16.4 µM [rising, single point]"
Cc1[nH]nc(-c2ccc(O)cc2O)c1Oc1ccccc1,-36.7,–,"29.1 µM [falling, single point]"
COc1ccc(CNC(=O)c2c([S-])n(-c3ccc(C)cc3)c3cccc[n+]23)cc1,20,"18.4 µM [rising, single point]",–
N#C/C(=C\c1ccccc1)C(=O)N1CCC(C(N)=O)CC1,2.38,–,–
O=C(NCc1ccc(F)cc1)c1cnc(Cl)c(Cl)c1,-13.3,"2.06 µM [falling, partial curve]",–
CCC(=O)Nc1ccc(C(=O)CSc2nc3ccccc3cc2CC)cc1,–,"0.651 µM [rising, single point]",–
COc1ccc(COc2ncnc3ccc(Br)cc23)cc1F,41.3,–,"2.06 µM [rising, full curve]"
c1ccc(-c2nc(NCc3ccco3)c3oc4ccccc4c3n2)cc1,-5.43,"29.1 µM [rising, single point]",–
COc1cc(CN2CCN(CCCc3ccccc3)C(CCO)C2)cc(OC)c1O (configuration not stated),-2.59,"29.1 µM [falling, single point]",–
CSc1ccccc1NC(=O)CN1CCN(Cc2ccccc2)CC1,-12.6,"9.2 µM [falling, partial curve]",–
CCCCNC(=O)/C(=C/c1ccco1)NC(=O)c1ccco1,2.1,"7.31 µM [rising, partial curve]",–
Oc1cccc(C(=S)N2CCC(Cc3ccccc3)CC2)c1,-45.3,"13 µM [falling, partial curve]","9.2 µM [falling, partial curve]"
O=C(c1ccc([N+](=O)[O-])o1)N1CCN(c2nc3c(Cl)cccc3s2)CC1,68.4,–,"0.326 µM [rising, full curve]"
O=C(NC(Cc1ccccc1)C(=O)O)/C(=C\c1ccc(Cl)cc1)NC(=O)c1ccco1 (configuration not stated),–,"0.092 µM [falling, full curve, poor fit]",–
COc1ccccc1C1CCN(Cc2ccccc2Cl)CC1,-31.8,"32.6 µM [falling, single point]","29.1 µM [falling, single point]"

# Looked up one by one from the list above (three):
SMILES,cell number change [%],AC50 [1],AC50 [2]
Fc1ccc(Cn2nnnc2C(c2ccc(Cl)cc2)N2CCSCC2)cc1 (configuration not stated),87,–,"16.4 µM [rising, single point]"
COc1ccc(CNC(=O)c2c([S-])n(-c3ccc(C)cc3)c3cccc[n+]23)cc1,20,"18.4 µM [rising, single point]",–
Cn1cc(C(=O)NC2C3CC4CC(C3)CC2C4)cn1 (configuration not stated),3.11,"10.3 µM [falling, partial curve]",–
